Hit rate of the full screen: of about 340,000 compounds, about 4,500 (1.3%) were called active. The inconclusive results got no clear call from the source; some entries with a clear call stand among them for comparison. Calls follow the shape of the dose curve; as a rule, active = well fitted inhibition curve with a large enough effect; inconclusive = small, poorly fitted or top-dose-only effect, or another doubt; inactive = no such curve, though single readings can be large or run the other way. Where the call is inconclusive, the potency comes from a doubtful curve fit.
Molecular target: DNA polymerase beta (Homo sapiens) (UniProt P06746)
Experiment: qHTS Assay for Inhibitors of DNA Polymerase Beta
Details: Pol beta primer extension/strand displacement, fluorescence kinetic; activity change, negative = inhibition: at 114 µM (top of the series)
Summary of the method: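 Pol beta (10 nM) and compounds were preincubated 15 min at room temperature, then 50 nM substrate (final) started primer extension/strand displacement. Reads were taken at 0 and 10 min; concentration-response data were fitted to a four-parameter Hill equation.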
% is scaled to controls: 0 for no effect and ±100 for the full control effect; potency is read from the fitted curve at half-maximal effect.

Compound | Potency | activity change, negative = inhibition
COCCCn1c(=NC(C)=O)c(C#N)cc2c(=O)n3cccc(C)c3nc21 | inconclusive: 25.1 µM [inhibitor, full curve, poor fit] | 
CCOC(=O)CSc1nc(-c2ccccc2)nc2ccccc12 | inconclusive: 1.41 µM [inhibitor, full curve] | 
Cc1ccccc1S(=O)(=O)NC1OC(=O)C(Cl)=C1Cl (stereo unspecified) | inconclusive: 14.1 µM [inhibitor, full curve] | 
COc1ccccc1Nc1nc(NCCCN(C)C)nc(N)c1[N+](=O)[O-] | active: 17.8 µM | 
CCCCS(=O)(=O)/C=C\C=C/S(=O)(=O)CCCC | inconclusive: 11.2 µM [inhibitor, full curve] | 
O=C(c1ccc(F)cc1)N1C2CCC1CC(O)(c1ccc(F)cc1)C2 (stereo unspecified) | inconclusive: 28.2 µM [inhibitor, single point] | 
CCc1ccccc1Nc1nn2c(=O)c3ccc(C(=O)NCCCOC(C)C)cc3nc2s1 | inconclusive: 14.1 µM [inhibitor, full curve] | 
COc1cccc(NC(=O)c2ccc(-c3nc(COc4ccccc4)c(C)o3)cc2)c1 |  | inactive: -19.2%
O=C(OCc1cc(=O)n2nc(C3CCCCC3)sc2n1)c1ccc(F)cc1 |  | inactive: 11.8%
CCOc1ccc(NC(=O)c2sc3nc4c(c(-c5ccc(OC)cc5)c3c2N)C(=O)CC(C)(C)C4)cc1 |  | inactive: 13.9%
COC(=O)c1c(NC(=O)/C(C#N)=C/c2ccccc2)sc2c1CCC2 |  | inactive: 24.7%
COc1ccc(C(=O)NC(=S)Nc2ccc(CN3CCOCC3)cc2)cc1Cl |  | inactive: -0.0522%
Cc1oc2ccc(O)cc2c1C(=O)OC(C)C | inconclusive: 89.1 µM [inhibitor, single point] | 
COc1ccc(S(=O)(=O)Cc2ccc(C(=O)N3CCN(Cc4ccccc4)CC3)o2)cc1 |  | inactive: -20.2%
Cc1cccc2cc(C#N)c(NCCCn3ccnc3)nc12 | inconclusive: 89.1 µM [inhibitor, single point] | 
N=C1/C(=C\c2coc3ccccc3c2=O)C(=O)N=C2SC=CN12 |  | inconclusive: -60% [inhibitor]
CCC(C)NC(=O)CCc1nc2ccccc2n1-c1ccccc1 (stereo unspecified) | inconclusive: 89.1 µM [inhibitor, single point] | 
Cc1ccc2nc(Nc3ccc(C)c(F)c3)c3nncn3c2c1 |  | inactive: 2.86%
CCn1nc(C)c(CCN(C)C(=O)Nc2cc(OC)c(OC)c(OC)c2)c1C |  | inactive: 1.8%
Cc1oc(-c2ccccc2Cl)nc1Cn1c(SCc2cccc(F)c2)nc2cccnc21 |  | inactive: 4.13%
COc1ccc(-c2cc(C#N)nc(N3CCNCC3)n2)cc1 | inconclusive: 50.1 µM [inhibitor, partial curve] | 

4 entries out of the list, sorted by length of the SMILES, smallest number first.
Compound | Potency | activity change, negative = inhibition
Cc1cccc2cc(C#N)c(NCCCn3ccnc3)nc12 | inconclusive: 89.1 µM [inhibitor, single point] | 
O=C(OCc1cc(=O)n2nc(C3CCCCC3)sc2n1)c1ccc(F)cc1 |  | inactive: 11.8%
Cc1oc(-c2ccccc2Cl)nc1Cn1c(SCc2cccc(F)c2)nc2cccnc21 |  | inactive: 4.13%
COc1ccc(S(=O)(=O)Cc2ccc(C(=O)N3CCN(Cc4ccccc4)CC3)o2)cc1 |  | inactive: -20.2%

— PubChem BioAssay AID485314 (National Center for Advancing Translational Sciences (NCATS), 2010)
